Data reported in paper PMC4764564.
No constants are given. Whether binding was seen depends on the method and setting. In cells and extracts the contact can be indirect. A yes stands for co-enrichment or nearness to the bait. Other partners may have been found.

Protein sequences, listed by entry. Tags and fused reporters are not part of them.
UniProt Q62696: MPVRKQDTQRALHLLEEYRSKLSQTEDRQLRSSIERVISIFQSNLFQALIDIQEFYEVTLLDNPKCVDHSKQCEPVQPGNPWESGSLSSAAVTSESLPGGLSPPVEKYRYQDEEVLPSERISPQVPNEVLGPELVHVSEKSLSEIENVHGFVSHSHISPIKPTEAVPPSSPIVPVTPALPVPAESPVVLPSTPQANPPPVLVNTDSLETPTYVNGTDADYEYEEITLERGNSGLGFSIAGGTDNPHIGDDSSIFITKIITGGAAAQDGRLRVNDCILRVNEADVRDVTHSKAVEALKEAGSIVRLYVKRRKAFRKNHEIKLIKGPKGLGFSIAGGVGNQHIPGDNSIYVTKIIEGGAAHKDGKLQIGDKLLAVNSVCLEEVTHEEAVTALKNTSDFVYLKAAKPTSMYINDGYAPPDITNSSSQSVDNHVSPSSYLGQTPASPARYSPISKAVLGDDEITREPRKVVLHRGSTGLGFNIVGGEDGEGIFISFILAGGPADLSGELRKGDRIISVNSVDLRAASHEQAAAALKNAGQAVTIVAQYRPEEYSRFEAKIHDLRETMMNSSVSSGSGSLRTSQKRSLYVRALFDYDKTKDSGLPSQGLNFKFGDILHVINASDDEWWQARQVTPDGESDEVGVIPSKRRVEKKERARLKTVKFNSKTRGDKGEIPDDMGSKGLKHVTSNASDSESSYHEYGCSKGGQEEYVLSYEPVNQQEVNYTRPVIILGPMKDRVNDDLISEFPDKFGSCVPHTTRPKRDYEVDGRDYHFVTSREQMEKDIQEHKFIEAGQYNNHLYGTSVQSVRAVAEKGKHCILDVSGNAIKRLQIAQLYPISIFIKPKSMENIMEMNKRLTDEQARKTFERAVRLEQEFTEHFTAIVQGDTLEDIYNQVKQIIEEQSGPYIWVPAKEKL
UniProt P70605: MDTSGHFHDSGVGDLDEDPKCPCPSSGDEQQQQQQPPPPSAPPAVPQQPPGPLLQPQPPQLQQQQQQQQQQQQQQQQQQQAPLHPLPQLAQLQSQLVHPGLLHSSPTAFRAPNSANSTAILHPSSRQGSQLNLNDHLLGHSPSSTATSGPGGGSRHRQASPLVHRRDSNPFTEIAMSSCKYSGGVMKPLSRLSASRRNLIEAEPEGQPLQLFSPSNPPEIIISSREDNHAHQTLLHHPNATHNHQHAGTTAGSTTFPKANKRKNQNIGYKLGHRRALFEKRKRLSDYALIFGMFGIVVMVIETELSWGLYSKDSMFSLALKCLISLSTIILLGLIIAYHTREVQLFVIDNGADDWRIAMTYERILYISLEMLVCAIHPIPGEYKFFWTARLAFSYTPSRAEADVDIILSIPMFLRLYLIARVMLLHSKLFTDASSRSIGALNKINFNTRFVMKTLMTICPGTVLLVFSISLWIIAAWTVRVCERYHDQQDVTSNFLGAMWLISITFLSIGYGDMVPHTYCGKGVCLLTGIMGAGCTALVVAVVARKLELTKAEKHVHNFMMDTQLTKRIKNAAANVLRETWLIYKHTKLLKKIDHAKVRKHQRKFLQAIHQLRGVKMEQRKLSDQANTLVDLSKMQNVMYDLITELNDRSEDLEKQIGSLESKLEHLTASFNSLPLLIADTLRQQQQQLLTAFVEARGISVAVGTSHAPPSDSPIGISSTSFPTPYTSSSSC

T1: MPP2 (membrane palmitoylated protein 2; p55), native, from brain membranes (rat (endogenous in rat brain)) (UniProt D3ZAA9)
T1 sequence: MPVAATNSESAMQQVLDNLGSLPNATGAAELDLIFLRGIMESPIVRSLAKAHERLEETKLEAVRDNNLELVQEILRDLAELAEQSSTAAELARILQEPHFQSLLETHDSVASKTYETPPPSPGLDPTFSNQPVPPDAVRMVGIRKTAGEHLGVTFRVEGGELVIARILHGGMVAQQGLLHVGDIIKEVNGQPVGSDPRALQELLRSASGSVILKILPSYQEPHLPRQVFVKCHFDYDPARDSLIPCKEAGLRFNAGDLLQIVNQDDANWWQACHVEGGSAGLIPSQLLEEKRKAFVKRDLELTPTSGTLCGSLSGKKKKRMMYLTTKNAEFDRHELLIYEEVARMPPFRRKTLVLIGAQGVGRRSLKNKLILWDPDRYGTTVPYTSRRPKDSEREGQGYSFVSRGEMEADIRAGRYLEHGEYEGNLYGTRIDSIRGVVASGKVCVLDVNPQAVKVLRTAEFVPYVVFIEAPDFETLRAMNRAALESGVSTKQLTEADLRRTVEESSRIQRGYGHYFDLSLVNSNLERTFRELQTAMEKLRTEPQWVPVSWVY


Target: T1, MPP2 (membrane palmitoylated protein 2; p55), native, from brain membranes (rat (endogenous in rat brain))
Assay: affinity purification with mass spectrometry; affinity purifications with anti-MPP2a and anti-MPP2b, pre-immunization IgG as control, on rat brain membrane fractions solubilized with CL-91; whole eluates to high-resolution mass spectrometry

Molecule | binding
DLG1 (SAP97), native, from brain membranes (from UniProt Q62696 1-911) | binds
Lin7C, native, from brain membranes (protein, UniProt Q792I0 1-197) MAALGEPVRLERDICRAIELLEKLQRSGEVPPQKLQALQRVLQSEFCNAVREVYEHVYETVDISSSPEVRANATAKATVAAFAASEGHSHPRVVELPKTEEGLGFNIMGGKEQNSPIYISRIIPGGIADRHGGLKRGDQLLSVNGVSVEGEHHEKAVELLKAAQGKVKLVVRYTPKVLEEMESRFEKMRSAKRRQQT | binds

The next lines start with the values.

binding | Molecule
binds | SK3, native, from brain membranes (from UniProt P70605 1-732)
binds | Lin7A, native, from brain membranes (protein, UniProt Q9Z250 1-232) MLKPSVTSAPTADMATLTVVQPLTLDRDVARAIELLEKLQESGEVPVHKLQSLKKVLQSEFCTAIREVYQYMHETITVNGCPEFRARATAKATVAAFAASEGHSHPRVVELPKTDEGLGFNVMGGKEQNSPIYISRIIPGGVAERHGGLKRGDQLLSVNGVSVEGEHHEKAVELLKAAKDSVKLVVRYTPKVLEEMEARFEKLRTARRRQQQQLLIQQQQQQQQQPQQNHMS
